The source of these data is publication PMC8740024.

Test [1] concerns the target T1, GFP-SGIP1α-MPΔ34-61 (mouse) (UniProt Q8VD37).
T1 sequence: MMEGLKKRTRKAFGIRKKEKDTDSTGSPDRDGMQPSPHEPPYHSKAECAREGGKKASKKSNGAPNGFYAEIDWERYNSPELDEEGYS
Kind of test: co-IP; co-immunoprecipitation of HA-SGIP1α-MP with GFP-tagged constructs or GFP; which tag was precipitated and the cells are told only in the Supplementary Methods.

Test [2] deals with SGIP1α-MP (membrane phospholipid-binding domain of mouse SGIP1α) (mouse) (UniProt Q8VD37). Described as above.

These are yes or no findings as the source states them, for the method shown. In cells and extracts the contact can be indirect. Some entries that bind do so weakly or less than the wild type. For some assays here: Sequences can lack the tags named with a protein.

B1: SGIP1α-MP (membrane phospholipid-binding domain of mouse SGIP1α) (domain or fragment, UniProt Q8VD37-6 1-33; Q8VD37-6 62-115)
chain: MMEGLKKRTRKAFGIRKKEKDTDSTGSPDRDGMQGKKKAQKTQLLLTSCFWLRALSLTLSQQPSPHEPPYHSKAECAREGGKKASKKSNGAPNGFYAEIDWERYNSPELDEEGYS
Turning to B1, the binding entry in test [1] is reported as “no binding”; in test [2], “binds”.
